At least one compound was matched to its structure with a doubt left.
Assay: Particle diameter distribution by dynamic light scattering photon correlation method (Delsa Nano)
Type: physicochemical
Details: starting organic compound powder before mixing/milling
Text: The term “average particle diameter” used in present specification means a mathematical average diameter (here, defined as the Dav value) in the particle diameter distribution as measured by a dynamic light scattering photon correlation method. The term “50%-diameter” (defined as median diameter or the D50 value) means a certain particle diameter when amount of a larger side becomes equal to amount of a smaller side of the particle diameters divided into two a powder from the certain particle diameter. The term “90%-diameter” (D90 value) means the particle diameter of the particle at the position of 90% when counted from the smallest size zero (minimum) to 100% (maximum) of the particle diameter in the particle diameter distribution as measured by the above-mentioned measurement method. The term “10%-diameter” (D10 value) means the particle diameter of the particle at the position of 10% when counted from the smallest size zero (minimum) to 100% (maximum) of the particle diameter in the particle diameter distribution as measured by the above-mentioned measurement method. […]

| Compound | Particle diameter distribution, D10, before milling | Particle diameter distribution, D50, before milling | Particle diameter distribution, D90, before milling | Particle diameter distribution, Dav (average particle diameter), before milling |
| --- | --- | --- | --- | --- |
| CC(C)OC(=O)C(C)(C)Oc1ccc(C(=O)c2ccc(Cl)cc2)cc1 [fenofibrate powder, fenofibrate] | 3520 nm | 33720 nm | 115590 nm | 48170 nm |
| C[C@@H]1O[C@@H](OC[C@H]2O[C@@H](Oc3c(-c4ccc(O)c(O)c4)oc4cc(O)cc(O)c4c3=O)[C@H](O)[C@@H](O)[C@@H]2O)[C@H](O)[C@H](O)[C@H]1O [rutin powder, rutin] | 1972 nm | 5007 nm | 21450 nm | 8949 nm |
